Substitutions are numbered along the chain they refer to. In names and notes the source's numbering stands. These are yes or no findings as the source states them, for the method shown. Binding seen in cells or lysates may run through a third protein. A result given as binding can be weak or reduced; the word gives no strength. For some of these results: Sequences can lack the tags named with a protein. Each block holds one molecule with its values, some of them ahead of it.
Columns and labels:
[1] = target: HA-IRF3-5D (a constitutively active IRF3 mutant) (UniProt Q14653); test: co-IP; HEK293T transfected with HA-IRF3-5D and EGFP-PARP7 or EGFP-PARP7-H532A; IP with HA antibody; endogenous CBP/p300 blotted; the text says 'in the nucleus'
[2] = target: HA-IRF3-5D (a constitutively active IRF3 mutant) (UniProt Q14653); test: co-IP; HEK293T co-transfected with HA-IRF3 or HA-IRF3-5D and EGFP-PARP7 constructs; IP with HA antibody on Protein G or A Dynabeads overnight at 4°C; IP lysis buffer 20 mM Tris-HCl pH 7.4, 0.5% Nonidet-P40, 150 mM NaCl, 1 μM veliparib; blotted

The chains behind the UniProt entries cited, without tags or fusion partners. Where a name states a change or a piece, a line headed by the entry shows the natural chain unless it says otherwise.
UniProt Q14653: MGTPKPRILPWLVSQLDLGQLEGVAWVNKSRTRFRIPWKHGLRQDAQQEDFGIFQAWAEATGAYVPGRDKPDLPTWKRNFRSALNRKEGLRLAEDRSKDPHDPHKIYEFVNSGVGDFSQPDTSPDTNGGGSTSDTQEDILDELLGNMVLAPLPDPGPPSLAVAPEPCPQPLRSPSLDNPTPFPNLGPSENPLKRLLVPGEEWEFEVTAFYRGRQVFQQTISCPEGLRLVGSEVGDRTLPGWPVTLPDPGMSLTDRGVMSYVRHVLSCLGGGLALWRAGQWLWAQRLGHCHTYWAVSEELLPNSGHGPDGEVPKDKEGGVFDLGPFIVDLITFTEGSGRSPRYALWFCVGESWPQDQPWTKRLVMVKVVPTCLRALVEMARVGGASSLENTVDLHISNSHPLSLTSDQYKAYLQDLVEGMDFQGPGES
UniProt Q92793: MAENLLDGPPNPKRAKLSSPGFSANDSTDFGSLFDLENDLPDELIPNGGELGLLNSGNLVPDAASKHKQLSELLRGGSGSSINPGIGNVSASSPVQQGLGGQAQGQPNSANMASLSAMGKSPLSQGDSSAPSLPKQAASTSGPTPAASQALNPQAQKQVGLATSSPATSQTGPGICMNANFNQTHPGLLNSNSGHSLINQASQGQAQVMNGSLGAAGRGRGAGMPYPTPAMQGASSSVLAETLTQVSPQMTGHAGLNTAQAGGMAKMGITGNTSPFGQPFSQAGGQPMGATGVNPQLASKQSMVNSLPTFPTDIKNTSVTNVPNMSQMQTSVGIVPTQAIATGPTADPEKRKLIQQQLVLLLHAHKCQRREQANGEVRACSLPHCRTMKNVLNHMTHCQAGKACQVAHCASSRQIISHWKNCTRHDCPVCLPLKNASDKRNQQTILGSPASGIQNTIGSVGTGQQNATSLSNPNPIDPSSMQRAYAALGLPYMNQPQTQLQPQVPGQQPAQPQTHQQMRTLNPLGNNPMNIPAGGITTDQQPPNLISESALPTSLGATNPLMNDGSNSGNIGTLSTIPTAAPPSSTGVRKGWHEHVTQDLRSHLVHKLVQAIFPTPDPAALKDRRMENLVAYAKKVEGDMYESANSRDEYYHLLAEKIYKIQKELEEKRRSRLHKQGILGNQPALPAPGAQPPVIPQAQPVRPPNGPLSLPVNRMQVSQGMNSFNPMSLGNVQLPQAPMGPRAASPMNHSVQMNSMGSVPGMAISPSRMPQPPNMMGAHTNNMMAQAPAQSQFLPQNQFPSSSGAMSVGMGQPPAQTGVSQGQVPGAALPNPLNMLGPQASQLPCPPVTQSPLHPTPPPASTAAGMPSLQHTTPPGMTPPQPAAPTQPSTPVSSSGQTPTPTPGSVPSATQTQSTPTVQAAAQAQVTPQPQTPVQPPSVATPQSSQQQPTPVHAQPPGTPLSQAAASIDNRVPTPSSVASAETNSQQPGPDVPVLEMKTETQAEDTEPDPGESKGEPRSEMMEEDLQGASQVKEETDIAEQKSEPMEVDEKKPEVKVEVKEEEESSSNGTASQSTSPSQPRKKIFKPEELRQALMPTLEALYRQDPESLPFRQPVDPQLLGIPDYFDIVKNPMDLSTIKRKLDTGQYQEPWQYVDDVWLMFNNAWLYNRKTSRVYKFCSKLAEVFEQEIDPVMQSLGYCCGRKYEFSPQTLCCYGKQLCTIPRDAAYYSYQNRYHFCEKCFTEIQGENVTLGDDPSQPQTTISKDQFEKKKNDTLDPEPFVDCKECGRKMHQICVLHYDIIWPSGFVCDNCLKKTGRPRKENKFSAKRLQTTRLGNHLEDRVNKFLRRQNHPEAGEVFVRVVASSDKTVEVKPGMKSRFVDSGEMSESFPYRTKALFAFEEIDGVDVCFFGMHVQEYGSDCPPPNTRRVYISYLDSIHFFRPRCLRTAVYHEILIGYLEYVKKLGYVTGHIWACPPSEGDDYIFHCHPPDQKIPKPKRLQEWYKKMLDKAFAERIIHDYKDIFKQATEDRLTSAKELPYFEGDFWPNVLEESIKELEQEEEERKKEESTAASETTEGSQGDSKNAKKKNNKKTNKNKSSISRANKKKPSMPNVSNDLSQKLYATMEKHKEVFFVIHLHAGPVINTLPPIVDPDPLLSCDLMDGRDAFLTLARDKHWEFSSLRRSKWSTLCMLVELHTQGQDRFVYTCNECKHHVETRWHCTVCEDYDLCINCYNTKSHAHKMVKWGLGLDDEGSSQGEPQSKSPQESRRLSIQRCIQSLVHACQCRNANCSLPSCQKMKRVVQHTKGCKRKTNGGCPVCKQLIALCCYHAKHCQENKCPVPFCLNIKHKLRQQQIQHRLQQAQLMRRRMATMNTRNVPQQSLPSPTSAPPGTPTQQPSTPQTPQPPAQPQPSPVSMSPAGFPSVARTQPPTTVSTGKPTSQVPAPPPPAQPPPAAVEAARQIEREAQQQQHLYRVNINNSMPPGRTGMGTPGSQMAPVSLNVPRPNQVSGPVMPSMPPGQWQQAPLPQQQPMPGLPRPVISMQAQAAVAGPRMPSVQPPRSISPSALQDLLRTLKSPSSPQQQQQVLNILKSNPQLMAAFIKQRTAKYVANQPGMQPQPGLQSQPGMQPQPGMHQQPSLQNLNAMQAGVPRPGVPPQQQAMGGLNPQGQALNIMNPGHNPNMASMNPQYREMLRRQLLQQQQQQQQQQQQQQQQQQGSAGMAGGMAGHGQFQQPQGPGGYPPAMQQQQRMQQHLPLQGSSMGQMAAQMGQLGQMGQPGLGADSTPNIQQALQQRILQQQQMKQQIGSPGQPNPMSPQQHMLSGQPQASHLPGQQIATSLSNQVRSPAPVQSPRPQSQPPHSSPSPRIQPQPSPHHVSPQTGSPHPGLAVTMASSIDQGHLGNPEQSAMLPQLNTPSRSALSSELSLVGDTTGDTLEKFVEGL
UniProt Q09472: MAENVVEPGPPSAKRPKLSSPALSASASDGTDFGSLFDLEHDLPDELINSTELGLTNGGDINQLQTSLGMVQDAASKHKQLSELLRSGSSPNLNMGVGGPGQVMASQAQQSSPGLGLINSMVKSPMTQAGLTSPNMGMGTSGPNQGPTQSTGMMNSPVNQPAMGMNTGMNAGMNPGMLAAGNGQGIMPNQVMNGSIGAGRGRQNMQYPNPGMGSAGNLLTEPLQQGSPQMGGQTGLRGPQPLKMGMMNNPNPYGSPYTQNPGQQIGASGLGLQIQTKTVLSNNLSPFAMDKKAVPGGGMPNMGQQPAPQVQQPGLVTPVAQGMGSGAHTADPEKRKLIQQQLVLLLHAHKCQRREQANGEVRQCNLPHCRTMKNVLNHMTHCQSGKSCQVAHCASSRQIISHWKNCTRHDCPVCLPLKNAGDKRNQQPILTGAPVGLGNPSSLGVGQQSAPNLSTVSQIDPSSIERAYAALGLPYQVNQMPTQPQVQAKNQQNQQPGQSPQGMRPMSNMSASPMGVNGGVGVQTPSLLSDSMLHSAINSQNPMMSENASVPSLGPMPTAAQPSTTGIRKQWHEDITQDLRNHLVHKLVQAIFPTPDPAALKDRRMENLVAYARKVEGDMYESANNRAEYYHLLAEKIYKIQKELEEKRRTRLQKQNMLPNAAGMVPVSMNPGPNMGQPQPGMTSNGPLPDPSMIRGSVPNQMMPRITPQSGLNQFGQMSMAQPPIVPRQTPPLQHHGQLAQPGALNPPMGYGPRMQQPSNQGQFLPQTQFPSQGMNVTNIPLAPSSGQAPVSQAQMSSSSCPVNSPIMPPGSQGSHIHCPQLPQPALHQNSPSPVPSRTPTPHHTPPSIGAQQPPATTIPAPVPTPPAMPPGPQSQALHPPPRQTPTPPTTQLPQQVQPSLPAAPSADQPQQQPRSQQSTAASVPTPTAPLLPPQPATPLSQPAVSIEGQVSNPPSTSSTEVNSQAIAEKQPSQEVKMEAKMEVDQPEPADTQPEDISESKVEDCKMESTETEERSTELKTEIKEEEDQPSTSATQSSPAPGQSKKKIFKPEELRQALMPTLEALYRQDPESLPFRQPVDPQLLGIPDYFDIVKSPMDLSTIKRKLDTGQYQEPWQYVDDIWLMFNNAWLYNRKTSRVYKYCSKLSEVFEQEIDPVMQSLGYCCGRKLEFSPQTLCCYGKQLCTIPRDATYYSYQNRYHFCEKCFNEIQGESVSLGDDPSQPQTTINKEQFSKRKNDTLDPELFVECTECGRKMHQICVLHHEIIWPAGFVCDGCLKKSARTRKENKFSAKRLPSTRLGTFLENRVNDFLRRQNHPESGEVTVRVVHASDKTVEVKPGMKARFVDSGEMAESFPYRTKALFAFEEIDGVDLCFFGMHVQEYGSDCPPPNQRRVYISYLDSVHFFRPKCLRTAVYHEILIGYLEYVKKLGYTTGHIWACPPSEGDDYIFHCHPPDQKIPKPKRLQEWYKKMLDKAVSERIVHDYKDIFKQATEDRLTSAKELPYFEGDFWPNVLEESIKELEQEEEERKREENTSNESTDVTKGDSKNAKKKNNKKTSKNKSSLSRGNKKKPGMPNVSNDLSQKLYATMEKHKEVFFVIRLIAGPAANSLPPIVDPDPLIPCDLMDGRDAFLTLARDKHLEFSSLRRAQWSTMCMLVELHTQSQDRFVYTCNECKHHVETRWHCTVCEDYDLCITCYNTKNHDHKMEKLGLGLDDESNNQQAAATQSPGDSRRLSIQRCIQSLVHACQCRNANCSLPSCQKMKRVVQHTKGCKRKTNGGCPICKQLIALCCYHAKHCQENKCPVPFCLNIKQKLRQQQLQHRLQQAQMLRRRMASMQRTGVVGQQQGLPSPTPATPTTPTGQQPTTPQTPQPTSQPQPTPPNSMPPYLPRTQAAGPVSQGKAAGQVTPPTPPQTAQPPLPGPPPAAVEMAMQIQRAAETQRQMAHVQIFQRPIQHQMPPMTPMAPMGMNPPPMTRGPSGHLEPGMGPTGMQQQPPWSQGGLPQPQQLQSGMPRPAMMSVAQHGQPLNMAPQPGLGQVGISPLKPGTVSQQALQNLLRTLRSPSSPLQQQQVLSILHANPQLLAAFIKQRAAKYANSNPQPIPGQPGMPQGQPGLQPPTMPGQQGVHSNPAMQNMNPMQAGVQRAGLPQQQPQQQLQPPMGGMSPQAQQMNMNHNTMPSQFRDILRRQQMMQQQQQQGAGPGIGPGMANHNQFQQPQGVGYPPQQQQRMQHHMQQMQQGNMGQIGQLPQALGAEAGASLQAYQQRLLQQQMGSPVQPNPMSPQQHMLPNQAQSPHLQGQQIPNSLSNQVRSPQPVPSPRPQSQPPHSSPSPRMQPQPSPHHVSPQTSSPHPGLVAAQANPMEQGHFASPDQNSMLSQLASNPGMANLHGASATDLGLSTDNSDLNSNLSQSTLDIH

Molecule: CREB-binding protein (CBP), endogenous in HEK293T (from UniProt Q92793 1-2442)
binding [1]: binds

B1: EGFP-PARP7 (enzyme, UniProt Q7Z3E1 1-657)
chain: MEMETTEPEPDCVVQPPSPPDDFSCQMRLSEKITPLKTCFKKKDQKRLGTGTLRSLRPILNTLLESGSLDGVFRSRNQSTDENSLHEPMMKKAMEINSSCPPAENNMSVLIPDRTNVGDQIPEAHPSTEAPERVVPIQDHSFPSETLSGTVADSTPAHFQTDLLHPVSSDVPTSPDCLDKVIDYVPGIFQENSFTIQYILDTSDKLSTELFQDKSEEASLDLVFELVNQLQYHTHQENGIEICMDFLQGTCIYGRDCLKHHTVLPYHWQIKRTTTQKWQSVFNDSQEHLERFYCNPENDRMRMKYGGQEFWADLNAMNVYETTEFDQLRRLSTPPSSNVNSIYHTVWKFFCRDHFGWREYPESVIRLIEEANSRGLKEVRFMMWNNHYILHNSFFRREIKRRPLFRSCFILLPYLQTLGGVPTQAPPPLEATSSSQIICPDGVTSANFYPETWVYMHPSQDFIQVPVSAEDKSYRIIYNLFHKTVPEFKYRILQILRVQNQFLWEKYKRKKEYMNRKMFGRDRIINERHLFHGTSQDVVDGICKHNFDPRVCGKHATMFGQGSYFAKKASYSHNFSKKSSKGVHFMFLAKVLTGRYTMGSHGMRRPPPVNPGSVTSDLYDSCVDNFFEPQIFVIFNDDQSYPYFVIQYEEVSNTVSI
binding [2]: binds

Second part, the molecule after the results:

binding [1]: binds
Molecule: p300, endogenous in HEK293T (from UniProt Q09472 1-2414)

binding [2]: binds
B2: EGFP-PARP7-H532A (enzyme, UniProt Q7Z3E1 1-657)
chain: B1 chain with H532A
